Test results reported in patent US20210171948A1, “COMPOSITIONS AND METHODS FOR TARGETING GLYPICAN-2 IN THE TREATMENT OF CANCER” (Shepherd Therapeutics, Inc., priority 2019, published 2021).
Some entries share one result that the patent states for a list of compounds. Strand notation (5' to 3'): a small letter for the sugar, then the base; units joined by * are phosphorothioate-linked, units joined directly phosphodiester-linked; [ ] holds rarer units or linkages, { } end groups; capitals alone tell only the bases. d = 2'-deoxy (DNA); r = 2'-OH (RNA)

Assays:
GPC2 mRNA [1] = experiment: GPC2 mRNA knockdown in neuroblastoma cell lines (Example 4); type: cell-based, human; conditions: CHP212, SH-SY5Y and CHLA90 neuroblastoma cell lines
Description: GPC2 mRNA knockdown was assessed in multiple neuroblastoma cell lines. Cells were transfected with either a scrambled control siRNA, with GPC2 siRNA sequences 3 or 5 from Table 7, or with siRNA sequences generated by Dharmacon (sequences 12-15 from Table 7) using the RNAiMAX Lipofectamine kit (Invitrogen, Carlsbad, Calif.) as previously described. Following a 96 hour incubation period, total RNA samples were collected to compare knockdown efficiency and viability was measured in parallel plated cells.
The extent of GPC2 mRNA reduction was assessed with additional GPC2 siRNA sequences in the CHP212 neuroblastoma cell line. Cells were transfected with either a scrambled control siRNA or with GPC2 siRNA sequences 3 or 5, or with siRNA sequences 6-11 (Sigma) using the RNAiMAX Lipofectamine kit (Invitrogen, Carlsbad, Calif.) as previously described. Following a 96 hour incubation period, total RNA samples were collected and viability was measured in parallel plated cells.
The extent of GPC2 mRNA reduction (knockdown) and corresponding protein level expression changes were assessed in three neuroblastoma cell lines following siRNA knockdown of GPC2. […] For protein analysis, cells were fixed, immunostained using an antibody against GPC2 protein, protein expression was measured via flow cytometry. […]

GPC2 mRNA [2] = experiment: GPC2 mRNA knockdown by qPCR in TC-32 Ewing's sarcoma cells transfected with siRNA (Example 2); type: cell-based, human; conditions: TC-32 Ewing's sarcoma cell line; siRNA 40 nM; compared to scrambled control siRNA
Description: siRNAs 1-5 from Table 7 were diluted to 40 nM in OptiMEM media and mixed in a 1:3 ratio (weight by volume) with RNAiMAX. This was incubated for 15 minutes at room temperature and dispensed onto cells plated in a 6 well tissue culture plate. Total RNA samples were collected at either 72 hours post transfection to compare knockdown efficiency (FIG. 2A), or at 24, 48, 72 or 96 hours post transfection to determine the extent of GPC2 mRNA knockdown over time (FIG. 2B). Expression levels of mRNA of GPC2 were measured in these samples using primers specific for GPC2 obtained commercially from Thermofisher (Carlsbad, Calif.) and standard qPCR technique.

Substance	Duration of GPC2 mRNA knockdown (GPC2 mRNA [1])	Duration of GPC2 mRNA knockdown post transfection (GPC2 mRNA [2])
GPC2 siRNA 5: siRNA duplex: sense CUCAGUAGCCCAGCACUCU[dT][dT] (SEQ ID NO: 211), anti-sense AGAGUGCUGGGCUACUGAG[dT][dT] (SEQ ID NO: 212) (sense CUCAGUAGCCCAGCACUCUTT; antisense AGAGUGCUGGGCUACUGAGTT; sugars from the 5' end r19 d2, backbone not given here; listed as Homo sapiens)	at least 72 hours	at least 96 hours
GPC2 siRNA 3: siRNA duplex: sense CCUGCUUGGACCUCGAUAA[dT][dT] (SEQ ID NO: 207), anti-sense UUAUCGAGGUCCAAGCAGG[dT][dT] (SEQ ID NO: 208) (sense CCUGCUUGGACCUCGAUAANN; antisense UUAUCGAGGUCCAAGCAGGNN; 3' dTdT overhangs, chemistry not fully specified; listed as Homo sapiens)		at least 96 hours
GPC2 siRNA 7: siRNA duplex: sense CUCCUUUCUGGUUCACACA[dT][dT] (SEQ ID NO: 215), anti-sense UGUGUGAACCAGAAAGGAG[dT][dT] (SEQ ID NO: 216) (sense rCrUrCrCrUrUrUrCrUrGrGrUrUrCrArCrArCrAdTdT; antisense rUrGrUrGrUrGrArArCrCrArGrArArArGrGrArGdTdT; listed as Homo sapiens)	at least 72 hours	
